Library screening results

Protein sequences, listed by entry. Tags and fused reporters are not part of them.
UniProt E9BF75, entry or part of it: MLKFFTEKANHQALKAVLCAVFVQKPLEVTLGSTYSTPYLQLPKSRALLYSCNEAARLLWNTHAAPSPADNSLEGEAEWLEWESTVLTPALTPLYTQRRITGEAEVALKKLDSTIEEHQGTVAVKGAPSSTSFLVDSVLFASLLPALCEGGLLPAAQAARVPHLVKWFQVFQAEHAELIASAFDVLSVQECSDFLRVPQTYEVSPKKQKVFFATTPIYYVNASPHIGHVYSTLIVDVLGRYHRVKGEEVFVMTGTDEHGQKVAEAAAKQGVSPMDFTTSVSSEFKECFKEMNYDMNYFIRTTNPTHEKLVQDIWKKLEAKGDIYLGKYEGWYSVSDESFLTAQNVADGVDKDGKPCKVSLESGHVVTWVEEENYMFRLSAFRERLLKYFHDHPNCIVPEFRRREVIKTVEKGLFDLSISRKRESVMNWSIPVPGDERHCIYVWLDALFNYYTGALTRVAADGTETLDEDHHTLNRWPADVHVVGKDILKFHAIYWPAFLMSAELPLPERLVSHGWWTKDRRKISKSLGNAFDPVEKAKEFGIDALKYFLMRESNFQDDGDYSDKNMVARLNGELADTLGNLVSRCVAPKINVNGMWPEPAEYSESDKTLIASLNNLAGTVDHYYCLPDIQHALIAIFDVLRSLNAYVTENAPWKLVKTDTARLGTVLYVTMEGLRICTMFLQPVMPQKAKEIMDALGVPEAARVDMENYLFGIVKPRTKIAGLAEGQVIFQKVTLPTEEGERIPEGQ

Source: ChEMBL document CHEMBL3988442, “University of Dundee, Small-Polar-MMV Screening Library” (2021).

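Primary screen of methionyl-tRNA synthetase; the read-out is not stated. Target: Methionyl-tRNA synthetase (putative), Leishmania donovani (UniProt E9BF75). The test concentration is not given. Values are per cent inhibition. Size under these conditions: about 68,000 compounds, about 24 of them at 50% or above in at least one test.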

Results are percentages, as filed. The record does not define 0% and 100%; most values in the screen are far below 50% and negative numbers occur (in some assays of this library far below -100). The compounds are a random part of those screened.

| compound | inhibition |
|---|---|
| `Cc1nc2n(n1)CCN(S(=O)(=O)c1ccc(Cl)cc1)C2` | 12.04 |
| `Cc1ccc2c(c1)CN(C(=O)c1cccnc1)C(CN(C)C)CO2` (stereo unspecified) | 14.58 |
| `COc1ccc(NC(=O)CSC(F)(F)F)cn1` | 7.56 |
| `CCN(CC)CC1CCN(Cc2ncc(C(C)(C)C)o2)CC1` | 0.2688 |
| `CCc1cc(N2CCN(C(C)=O)CC2)n2nc(C)c(C)c2n1` | 5.974 |
| `Cc1ccc(CC2CCCN2CC(=O)NCc2cccnc2)cc1` (stereo unspecified) | 11.97 |
| `O=C1CC(c2cccc(Cl)c2)c2snc(C(=O)O)c2N1` (stereo unspecified) | -37.94 |
| `COc1nc(N2CCN(C(C)=O)CC2)ncc1Br` | 13.71 |
| `CN1CCc2c(C#N)c(NCCN3CCOCC3)n3cnnc3c2C1` | 15.16 |
| `Cc1cnc(C)c(N2CCCC(CO)(Cc3ccccc3C)C2)n1` (stereo unspecified) | 4.676 |
| `CS(=O)(=O)N1CCOCC2(CCN(C(=O)c3cccnc3)CC2)C1` | 9.5 |
| `CCNC(=O)c1cc(OC)c2cc(F)cc(C)c2n1` | 11.78 |
| `Cc1ccc(O)c(C(=O)N2C[C@@H](C(=O)O)[C@H](c3ccccc3)C2)c1` | 14.38 |
| `Cc1ccc2c(c1)C(NC1CC1)CC21CCNCC1` (stereo unspecified) | 6.753 |
| `Cc1ccc(NC2CCN(C(=O)c3sccc3C3CC3)CC2)nn1` | 19.32 |
| `O=C(c1ccc(O)cn1)N1CCOC(c2ccc(Cl)c(Cl)c2)C1` (stereo unspecified) | 8.71 |
| `COC1CN(C(=O)NC2CCCC2)CCC(=O)N(C)c2ccccc21` (stereo unspecified) | 5.753 |
| `CC(C)CC(=O)N1C[C@H]2CCCN(S(=O)(=O)c3ccc(Cl)s3)[C@H]2C1` | 9.043 |
| `Cc1cc(C(=O)N(C)Cc2cnn(C)c2C)n(C)n1` | 6.516 |
| `CCc1ncc2c(n1)CN(C(=O)Cc1cc(OC)cc(OC)c1)C2` | 10.13 |
| `Cc1cc(CNC(=O)CN2CCCC(Cn3cncn3)C2)ccc1F` (stereo unspecified) | 12.43 |
| `Cc1ccc2oc(=O)n(CCC(=O)N3CCCC4(CNC(=O)O4)C3)c2c1` (stereo unspecified) | 14.58 |
| `CC(=O)N1CCN(C(=O)CNc2ccc3ncsc3c2)CC1` | 6.425 |
| `c1ncn(CC2CN(Cc3noc(C4CC4)n3)CCO2)n1` (stereo unspecified) | 5.594 |
| `Cc1cccc(CN2CC[C@H]3OCC[C@@]3(C(=O)N3CCOCC3)C2)n1` | 5.464 |
| `C[C@H](NS(C)(=O)=O)C(=O)NCc1cc(-c2ccco2)n(CC(F)(F)F)n1` | 0.7282 |
| `CCn1c(C)nnc1CN(C)C1CCN(Cc2ccon2)C1` (stereo unspecified) | 8.541 |
| `Cc1nn(C)c(N2CCOCC2)c1CNCc1cscn1` | 14.75 |
| `COCc1cc(N2C[C@@H](C)[C@](O)(C3CC3)C2)ncn1` | 7.843 |
| `OCCn1nccc1C1CCN(CCOc2ccccc2Cl)CC1` | 18.29 |
| `O=C(c1ccoc1)N1CCCC2(CCC(=O)N2Cc2ccncc2)C1` (stereo unspecified) | 13.49 |
| `CNCC(=O)N1CCCC(c2nccnc2Oc2cccc(F)c2)C1` (stereo unspecified) | 5.226 |
| `N#Cc1ccccc1N1CCCN(CC(=O)Nc2ccc(Cl)cn2)CC1` | 6.494 |
| `N#Cc1ccc(CNCCS(=O)(=O)N2CCc3ccccc32)cc1` | 13.17 |
| `OCC1(O)CCN(Cc2noc(-c3ccccc3)n2)CC1` | 19.58 |
| `Cn1c(CO[C@H]2CN(S(C)(=O)=O)C[C@H]2F)nc2ccccc21` | 9.89 |
| `Cn1cnnc1C1CCN(C(=O)Cc2ccc3c(c2)OCCO3)CC1` | 3.093 |
| `Cc1ccccc1-n1cc(-c2ccnc(N3CCCC(O)C3)n2)cn1` (stereo unspecified) | 16.45 |
| `Cc1cccc(NCC(=O)NC2(C#N)CCCC2)c1C(=O)N1CCCC1` | 5.013 |
| `COc1ccc(-c2nc(CN3CCCS3(=O)=O)co2)cc1` | 6.367 |
| `Cc1cccc(C(=O)N2CCCC2)c1NCC(=O)NC(C)(C#N)C1CC1` (stereo unspecified) | 1.003 |
| `CS(=O)(=O)N1CCc2c(cccc2NC(=O)Nc2ccccn2)C1` | 0 |
| `CCOc1ccc(NC2CCN(C3CC3)C2=O)cn1` (stereo unspecified) | 17.6 |
| `CC(C)(CN1CCC(Cc2ccc(C(=O)O)cc2)C1)N1CCOCC1` (stereo unspecified) | 16.72 |
| `CCc1n[nH]c(C2CN(C(=O)c3ccc4c(c3)CCC4)CCO2)n1` (stereo unspecified) | 9.945 |
| `Cc1ccc(Nc2nccc(C3CN(C(C)C)C3)n2)nc1` | -8.36 |
| `CC(Oc1ccccc1C(F)(F)F)C(=O)NCCCC(N)=O` (stereo unspecified) | 10.37 |
| `CCc1nc(C)ncc1C(=O)N1CCN(CC)c2ccccc21` | 14.23 |
| `Cc1ccsc1CNC(=O)CC1CN(C(=O)OC(C)(C)C)C1` | 15.27 |
| `COc1cccc(COCC(=O)NC2CCN(CC(N)=O)CC2)c1` | 4.261 |
| `O=C(NC1CC2(CCN(CCO)CC2)c2ccccc21)c1ccncc1` (stereo unspecified) | 18.48 |
| `O=c1c2ccccc2nc2n1CCN(Cc1cccs1)CC2` | 11.99 |
| `CS(=O)(=O)NC[C@H]1Cn2c(-c3ccc(F)cc3)cnc2CO1` | 11.19 |
| `Cc1cc(Br)ccc1C(=O)Nc1c(C(N)=O)n[nH]c1C` | 17.6 |
| `COc1ccc(F)cc1CN1CCCn2nc(CNS(C)(=O)=O)cc2C1` | 12.09 |
| `O=C(Nc1ccc(F)c(F)c1)N1CCC2(CCC(=O)N(C3CC3)C2)CC1` | 6.977 |
| `Nc1nc(Nc2ccccc2)cc(N2CCNCC2)n1` | 13.06 |
| `Cc1cc(C)c(CNC(=O)NCc2ccc(F)cc2)c(=O)[nH]1` | 22.91 |
| `COC1CCN(CCNC(=O)NCC(C)c2cccc(C)c2)CC1` (stereo unspecified) | 6.948 |
| `OCCN1CCCCC1c1cc[nH]n1` (stereo unspecified) | 16.46 |
| `O=C(C1CCCO1)N1C[C@@H]2CCN(c3cnccn3)C[C@@H]2C1` (stereo partly specified) | 16.99 |